The list is a part of this screen's results and no random one: it gathers tests that were run many times, whatever their T/C, doses with no T/C, and many T/C values between a quarter and a half above the control. Further doses and runs are listed elsewhere. T/C is the treated group as % of the vehicle group. Some doses have a count of surviving animals in place of a T/C: the source files T/C as zero there, which appears to mark a toxic dose or a test without result, not a measured value. Some doses without a T/C left all or most animals alive at the check, yet need not have been tolerated: survival well below the control is almost never listed, so the zero probably covers shortened survival too. Survivors were counted at the toxicity check, usually on the fifth day, unless a day is given; later deaths do not show. Schedules are NCI's codes, read here as Q, the interval in days (D) or hours (H), X, the number of doses. Some doses were run more than once; the results are listed from low to high. Some schedules carry Z or #; the key to these is not given. For survival time, the PubChem record calls one and a half times the control and up active, and a quarter to a half above the control has no call in these data; cut-offs in other NCI protocols can differ. Brackets with × give the number of equal values in this list.
Test system: CD2F1 mice, L1210 leukemia ip, survival T/C
Experiment: NCI In Vivo Anticancer Drug Screen. Data for tumor model L1210 Leukemia (intraperitoneal) in CD2F1 (CDF1) mice
Details: higher T/C = longer survival
In short: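 Read-out first: treated-group measurement over vehicle-control measurement, expressed as a ratio. Animals bore a transplanted tumor line and were dosed with compound or vehicle.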

[1] = T/C endpoint: mean survival time, dose: 200.0 mg/kg/injection, schedule: Q01DX009 (ip), vehicle: saline
[2] = T/C endpoint: mean survival time, dose: 300.0 mg/kg/injection, schedule: Q01DX001 (ip), vehicle: saline
[3] = T/C endpoint: mean survival time, dose: 50.0 mg/kg/injection, schedule: Q04DX002 (ip), vehicle: saline with Tween-80
[4] = T/C endpoint: mean survival time, dose: 100.0 mg/kg/injection, schedule: Q04DX002 (ip), vehicle: saline with Tween-80
[5] = T/C endpoint: mean survival time, dose: 200.0 mg/kg/injection, schedule: Q01DX009 (ip), vehicle: saline with Tween-80
[6] = T/C endpoint: mean survival time, dose: 200.0 mg/kg/injection, schedule: Q04DX003 (ip), vehicle: saline with Tween-80
[7] = T/C endpoint: mean survival time, dose: 400.0 mg/kg/injection, schedule: Q01DX001 (ip), vehicle: saline with Tween-80
[8] = T/C endpoint: mean survival time, dose: 200.0 mg/kg/injection, schedule: Q01DX001 (ip), vehicle: saline with Tween-80

For CCCCC(=O)OCC(=O)[C@]1(O)Cc2c(O)c3c(c(O)c2[C@@H](OC2CC(NC(=O)C(F)(F)F)C(O)C(C)O2)C1)C(=O)c1c(OC)cccc1C3=O (some centres undefined), the T/C (T/C endpoint: mean survival time, dose: 16.0 mg/kg/injection, schedule: Q01DX009 (ip), vehicle: Klucel (hydroxypropylcellulose) (HPC)) was 128 % of control, the T/C (T/C endpoint: mean survival time, dose: 128.0 mg/kg/injection, schedule: Q01DX009 (ip), vehicle: water) was 127 % of control and the survivor count (T/C endpoint: mean survival time, dose: 256.0 mg/kg/injection, schedule: Q01DX009 (ip), vehicle: Klucel (hydroxypropylcellulose) (HPC)) was 5 of 6. The T/C (T/C endpoint: mean survival time, dose: 256.0 mg/kg/injection, schedule: Q01DX009 (ip), vehicle: water) was 142 % of control.

For CC(=O)NNC(=O)c1ccccn1, the survivor count (T/C endpoint: mean survival time, dose: 100.0 mg/kg/injection, schedule: Q#A X018 (ip), vehicle: water) was 1 of 6, the survivor count [1] was 6 of 10 and the survivor count (T/C endpoint: mean survival time, dose: 200.0 mg/kg/injection, schedule: Q01DX009 (ip), vehicle: water) was 2 of 6. The survivor count (T/C endpoint: mean survival time, dose: 200.0 mg/kg/injection, schedule: Q#A X018 (ip), vehicle: water) was 0 of 6, the survivor count (T/C endpoint: mean survival time, dose: 300.0 mg/kg/injection, schedule: Q#A X018 (ip), vehicle: water) was 0 of 6 and the survivor count (T/C endpoint: mean survival time, dose: 400.0 mg/kg/injection, schedule: Q01DX001 (ip), vehicle: water) was 0 of 6. For the same compound, the survivor count (T/C endpoint: mean survival time, dose: 400.0 mg/kg/injection, schedule: Q01DX009 (ip), vehicle: water) was 0 of 6, the survivor count (T/C endpoint: mean survival time, dose: 400.0 mg/kg/injection, schedule: Q01DX009 (sc), vehicle: water) was 0 of 6 and the survivor count (T/C endpoint: mean survival time, dose: 600.0 mg/kg/injection, schedule: Q01DX001 (ip), vehicle: water) was 0 of 6. The survivor count (T/C endpoint: mean survival time, dose: 600.0 mg/kg/injection, schedule: Q01DX009 (ip), vehicle: water) was 0 of 6 and the survivor count (T/C endpoint: mean survival time, dose: 600.0 mg/kg/injection, schedule: Q01DX009 (sc), vehicle: water) was 0 of 6.

CC(=O)[O][Hg][c]1s[c]([Hg][O]C(C)=O)[c]([Hg][O]C(C)=O)[c]1[Hg][O]C(C)=O was tested, and the survivor count (T/C endpoint: mean survival time, dose: 12.5 mg/kg/injection, schedule: Q04DX003 (ip), vehicle: saline with Tween-80) was 3 of 6, the survivor count (T/C endpoint: mean survival time, dose: 25.0 mg/kg/injection, schedule: Q04DX003 (ip), vehicle: saline with Tween-80) was 3 of 6 and the survivor count (T/C endpoint: mean survival time, dose: 50.0 mg/kg/injection, schedule: Q01DX009 (ip), vehicle: Klucel (hydroxypropylcellulose) (HPC)) was 0 of 6.

With COc1ccc(OC)c(Cc2cnc3nc(N)nc(N)c3c2C)c1 the T/C (T/C endpoint: median survival time, dose: 40.0 mg/kg/injection, schedule: Q01DX009 (ip), vehicle: dextrose) was 131 and 137 % of control and the survivor count (T/C endpoint: median survival time, dose: 80.0 mg/kg/injection, schedule: Q01DX009 (ip), vehicle: dextrose) was 5 of 6.

For CC(=O)c1ccc(C(=O)CC(O)(C(F)(F)F)C(F)(F)F)cc1, the survivor count (T/C endpoint: mean survival time, dose: 400.0 mg/kg/injection, schedule: Q04DX003 (ip), vehicle: other) was 3 of 6.

For CSCCC(C)(C)C, the survivor count (T/C endpoint: mean survival time, dose: 150.0 mg/kg/injection, schedule: Q01DX001 (ip), vehicle: saline) was 1 of 6 and the survivor count [2] was 0 of 6.

In the case of Nc1nc(N)c2c(n1)NCN(Cc1ccc(Cl)c(Cl)c1)C2, the survivor count (T/C endpoint: mean survival time, dose: 100.0 mg/kg/injection, schedule: Q01DX009 (ip), vehicle: water) is reported as 3 of 6.

With COc1cc(C2c3cc4c(cc3[C@@H](OC3OC5CO[C@@H](C)OC5C(O)C3O)[C@H]3COC(=O)C23)OCO4)cc(OC)c1OC (some centres undefined) the T/C (T/C endpoint: median survival time, dose: 12.5 mg/kg/injection, schedule: Q01DX005 (ip), vehicle: saline) was 131 % of control, the T/C (T/C endpoint: median survival time, dose: 25.0 mg/kg/injection, schedule: Q01DX005 (ip), vehicle: saline) was 133 % of control and the T/C (T/C endpoint: median survival time, dose: 36.0 mg/kg/injection, schedule: Q01DX009 (ip), vehicle: saline) was 146 % of control.

For C=C[CH2][Sn]([Br])([c]1ccccc1)[c]1ccccc1, the survivor count (T/C endpoint: mean survival time, dose: 12.5 mg/kg/injection, schedule: Q01DX009 (ip), vehicle: saline with Tween-80) was 3 of 6, the survivor count (T/C endpoint: mean survival time, dose: 25.0 mg/kg/injection, schedule: Q01DX009 (ip), vehicle: saline with Tween-80) was 1 of 6 and the survivor count [3] was 0 of 3. The survivor count [4] was 0 of 3.

CCOC(=S)SCCSC was tested, and the survivor count (T/C endpoint: mean survival time, dose: 400.0 mg/kg/injection, schedule: Q01DX001 (ip), vehicle: saline) was 1 of 4.

For ONc1ncnc2nc[nH]c12, the T/C (T/C endpoint: mean survival time, dose: 89.0 mg/kg/injection, schedule: Q01DX009 (ip), vehicle: saline) was 128 % of control, the T/C (T/C endpoint: mean survival time, dose: 133.0 mg/kg/injection, schedule: Q01DX009 (ip), vehicle: saline) was 140 % of control and the T/C [1] was 134 % of control. The T/C (T/C endpoint: mean survival time, dose: 300.0 mg/kg/injection, schedule: Q01DX009 (ip), vehicle: saline) was 138 % of control.

In the case of Cc1cc(N)nc2ccccc12, the survivor count (T/C endpoint: mean survival time, dose: 25.0 mg/kg/injection, schedule: Q04DX002 (ip), vehicle: saline with Tween-80) is reported as 1 of 3 and the survivor count [3] is reported as 0 of 3.

For CN(C)N=Nc1ccc(S(=O)(=O)Nc2ncccn2)cc1, the survivor count [5] was 6 of 6, the T/C [6] was 129 % of control and the survivor count (T/C endpoint: mean survival time, dose: 400.0 mg/kg/injection, schedule: Q01DX009 (ip), vehicle: saline with Tween-80) was 5 of 6.

For O=C1C=C(Nc2ccc([N+](=O)[O-])cc2)c2ccccc2C1=O, the survivor count [2] was 3 of 6.

With CCC1=NNC(=O)C1(Br)Br the survivor count (T/C endpoint: mean survival time, dose: 50.0 mg/kg/injection, schedule: Q04DX003 (ip), vehicle: saline with Tween-80) was 1 of 6, the survivor count (T/C endpoint: mean survival time, dose: 100.0 mg/kg/injection, schedule: Q04DX003 (ip), vehicle: saline with Tween-80) was 1 of 6 and the survivor count [6] was 0 of 6.

For Cc1cc(F)ccc1NC(=O)Nc1ccc(F)cc1C, the survivor count [4] was 3 of 3.

In the case of CC1CC(C)(C)N=C(C(Cc2ccccc2)Cc2ccccc2)O1 (centres undefined), the survivor count [7] is reported as 2 of 6.

For CCCC(O)C(C)(C)[N+](=O)[O-] (centres undefined), the survivor count (T/C endpoint: mean survival time, dose: 50.0 mg/kg/injection, schedule: Q01DX009 (ip), vehicle: saline with Tween-80) was 0 of 3, the survivor count (T/C endpoint: mean survival time, dose: 100.0 mg/kg/injection, schedule: Q01DX009 (ip), vehicle: saline with Tween-80) was 0 of 3 and the survivor count [5] was 0 of 3.

For COc1ccc2c(c1)CCC1C2CCC2(C)C(=O)NC(=O)N12 (centres undefined), the survivor count [8] was 6 of 6 and the survivor count (T/C endpoint: mean survival time, dose: 200.0 mg/kg/injection, schedule: Q04DX002 (ip), vehicle: saline with Tween-80) was 3 of 3.

Cc1ccc(S(=O)(=O)NCCC(=O)Nc2ccccc2)cc1 was tested, and the survivor count (T/C endpoint: mean survival time, dose: 12.5 mg/kg/injection, schedule: Q01DX009 (ip), vehicle: water) was 6 of 6 and the survivor count (T/C endpoint: mean survival time, dose: 25.0 mg/kg/injection, schedule: Q01DX009 (ip), vehicle: water) was 6 of 6.

For CCOP(=O)(N1CC1(C)C)N1CC1(C)C (centres undefined), the T/C (T/C endpoint: mean survival time, dose: 20.0 mg/kg/injection, schedule: Q01DX009 (ip), vehicle: saline) was 132 % of control.

In the case of CC(=O)OCC1OC(n2cnc(N)nc2=O)C(OC(C)=O)C1OC(C)=O (centres undefined), the T/C (T/C endpoint: mean survival time, dose: 1.56 mg/kg/injection, schedule: Q01DX009 (ip), vehicle: saline) is reported as 130 % of control, the T/C (T/C endpoint: mean survival time, dose: 3.12 mg/kg/injection, schedule: Q01DX009 (ip), vehicle: saline) is reported as 147 % of control and the T/C (T/C endpoint: mean survival time, dose: 6.25 mg/kg/injection, schedule: Q01DX009 (ip), vehicle: saline) is reported as 148 % of control. For the same compound, the T/C (T/C endpoint: mean survival time, dose: 12.5 mg/kg/injection, schedule: Q01DX009 (ip), vehicle: saline) was 136 % of control, the survivor count (T/C endpoint: mean survival time, dose: 50.0 mg/kg/injection, schedule: Q01DX009 (ip), vehicle: saline) was 3 of 6 and 6 of 6 and the survivor count (T/C endpoint: mean survival time, dose: 100.0 mg/kg/injection, schedule: Q01DX009 (ip), vehicle: saline) was 1 of 6 and 6 of 6.

In the case of CCCCCCCCCCCCCCCCCC[N+]1(C)CCC[N+](C)(CCCCCCCCCCCCCCCCCC)CC1 (centres undefined), the T/C (T/C endpoint: mean survival time, dose: 100.0 mg/kg/injection, schedule: Q01DX001 (ip), vehicle: saline with Tween-80) is reported as 98, 102, 105 % of control (2×), the T/C [8] is reported as 98, 105, 108 % of control (2×) and the T/C [7] is reported as 104, 105, 109 % of control. The survivor count [7] was 1 of 3 and the survivor count (T/C endpoint: mean survival time, dose: 400.0 mg/kg/injection, schedule: Q04DX003 (ip), vehicle: saline with Tween-80) was 3 of 3.

O=C(CI)OCCCl was tested, and the survivor count (T/C endpoint: mean survival time, dose: 100.0 mg/kg/injection, schedule: Q01DX009 (ip), vehicle: other) was 2 of 6, the survivor count (T/C endpoint: mean survival time, dose: 200.0 mg/kg/injection, schedule: Q01DX009 (ip), vehicle: other) was 0 of 6 and the survivor count (T/C endpoint: mean survival time, dose: 400.0 mg/kg/injection, schedule: Q01DX009 (ip), vehicle: other) was 0 of 6.

Source: PubChem BioAssay AID256 (DTP/NCI, 2004)
